At least one compound was matched to its structure with a doubt left.
Experiments:
mice = conditions: 2 mg/kg in mice; cited from earlier work
[1] = system: hyper-locomotor effect of opiates; conditions: in vivo; cited from earlier work
[2] = system: sensitization induced by amphetamine; assay: Behavioral sensitization protocol (amphetamine), locomotor activity in open-field; type: in vivo, mice; conditions: repeated sessions, amphetamine 2 mg/kg
C57/BL6J male mice = assay: Motor and exploratory activity test in open-field (effects of the products on the locomotor activity); type: in vivo; conditions: cyproheptadine alone, doses greater than 3 mg/kg

SMILES: CN1CCC(=C2c3ccccc3C=Cc3ccccc32)CC1 [Cyproheptadine]
- effect on the locomotor activity (mice): no effect
- effect on the hyper-locomotor effect of opiates [1]: antagonizes
- effect on the development (and expression) of behavioral sensitization to amphetamine [2]: limited effects
- effect on locomotion (C57/BL6J male mice): significant effect
